No constants are given. Whether binding was seen depends on the method and setting. For some assays here: In cells and extracts the contact can be indirect. Some results given as binding are weak or reduced against the parent protein; the word gives no strength. For some assays here: Sequences can lack the tags named with a protein. One block for each binder: values may come before it.
Key:
[1] = target: T1, PHYTOCHROME … FACTOR 4 (PIF4), two-hybrid bait in pGBT9 (Arabidopsis thaliana) (UniProt Q8W2F3); assay: two-hybrid; PIF4 as bait in pGBT9, HEC2 or mHEC2 as preys in pGADT7; yeast strain Y187, selected on -Leu, -Trp medium; beta-galactosidase assay
T1 sequence: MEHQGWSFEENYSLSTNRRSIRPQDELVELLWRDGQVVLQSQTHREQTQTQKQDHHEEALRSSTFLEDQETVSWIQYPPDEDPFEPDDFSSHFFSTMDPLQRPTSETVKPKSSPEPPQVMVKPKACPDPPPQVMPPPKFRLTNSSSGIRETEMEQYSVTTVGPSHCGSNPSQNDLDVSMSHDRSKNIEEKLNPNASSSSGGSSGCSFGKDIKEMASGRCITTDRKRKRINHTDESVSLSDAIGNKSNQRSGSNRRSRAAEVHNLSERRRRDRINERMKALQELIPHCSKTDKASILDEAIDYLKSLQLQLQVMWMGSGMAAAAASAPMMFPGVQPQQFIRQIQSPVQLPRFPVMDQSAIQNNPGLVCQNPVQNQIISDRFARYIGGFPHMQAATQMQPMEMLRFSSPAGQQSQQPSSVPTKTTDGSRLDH

[2] = target: T2, PIF4-myc (35S:PIF4-myc transgenic Arabidopsis) (Arabidopsis thaliana) (UniProt Q8W2F3); assay: co-IP; double transgenic Arabidopsis seedlings (35S:PIF4-myc crossed with 35S:HEC2-GFP or 35S:mHEC2-GFP), 50 seedlings a sample; precipitated with anti-myc and Dynabeads protein A; blots with anti-myc or anti-GFP
T2 sequence: T1 sequence

binding [1]: binds
B1: HECATE 2 (HEC2), wild type, two-hybrid prey in pGADT7 (protein, UniProt Q9SND4 1-231)
chain: MDNSDILMNMMMQQMEKLPEHFSNSNPNPNPHNIMMLSESNTHPFFFNPTHSHLPFDQTMPHHQPGLNFRYAPSPSSSLPEKRGGCSDNANMAAMREMIFRIAVMQPIHIDPESVKPPKRKNVRISKDPQSVAARHRRERISERIRILQRLVPGGTKMDTASMLDEAIHYVKFLKKQVQSLEEHAVVNGGGMTAVAGGALAGTVGGGYGGKGCGIMRSDHHQMLGNAQILR

binding [2]: binds
B2: HEC2-GFP (35S:HEC2-GFP transgenic Arabidopsis) (protein, UniProt Q9SND4 1-231)
chain: B1 chain
